Data as given in PubChem BioAssay AID1259254 (NCATS, 2017)

- Aim: 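Genome-wide screen for genes that prevent DNA re-replication in cancer cells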 (primary screen)
- Cells: human HCT116 colorectal cancer cells
- Reagents: single siRNA against human genes
- Timing: 3 days
- Measured: 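Nuclei stained with Hoechst and imaged; cell-cycle phase assigned by DNA content; G2 share scaled per plate, non-targeting siRNA 0%, GMNN siRNA 100%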
- Direction: G2 robust z-score: higher = more G2 cells, more excess DNA replication
- Hit rule: 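Active siRNAs have a G2 robust z of 5 or more median absolute deviations over the median, which in these data means about 38% or higher of GMNN control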
The deposit covers about 59,000 reagents; this is an unselected part. Over the whole deposit, about 1,550 (2.6%) are marked active. 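G2 share is only a proxy for re-replication; each gene was hit by three separate siRNAs, and active genes were retested.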 Unmarked entries are inactive. Reagents against one gene are numbered here. Not all columns of the deposit are shown. The record does not give: the amount of reagent.

Which result is listed for BRD10 (bromodomain containing 10) #1?
G2 robust z-score: -0.211

What did the screen give for BRD10 (bromodomain containing 10) #2?
G2 robust z-score: 1.92

How did the screen score BRD10 (bromodomain containing 10) #3?
G2 robust z-score: -0.689

For COQ8A (coenzyme Q8A) #1, what does the deposit list?
G2 robust z-score: 0.0104

For COQ8A (coenzyme Q8A) #2, what does the deposit list?
G2 robust z-score: -0.365

With COQ8A (coenzyme Q8A) #3, what was measured?
G2 robust z-score: -1.07

How did the screen score DPH1 (diphthamide biosynthesis 1) #1?
G2 robust z-score: -0.832

Which result is listed for DPH1 (diphthamide biosynthesis 1) #2?
G2 robust z-score: 0.822

What did the screen give for DPH1 (diphthamide biosynthesis 1) #3?
G2 robust z-score: -0.494

For NMRAL1 (NmrA like redox sensor 1) #1, what does the deposit list?
G2 robust z-score: 0.416

How did the screen score NMRAL1 (NmrA like redox sensor 1) #2?
G2 robust z-score: -0.137

How did the screen score NMRAL1 (NmrA like redox sensor 1) #3?
G2 robust z-score: 1.2

What did the screen give for IDS (iduronate 2-sulfatase) #1?
G2 robust z-score: 0.987

Which result is listed for IDS (iduronate 2-sulfatase) #2?
G2 robust z-score: 2.51

What is on record for IDS (iduronate 2-sulfatase) #3?
G2 robust z-score: -1.1

Which result is listed for CENPS (centromere protein S) #1?
G2 robust z-score: 1.3

Which result is listed for CENPS (centromere protein S) #2?
G2 robust z-score: -1.05

What is on record for CENPS (centromere protein S) #3?
G2 robust z-score: -0.292

With MEP1A (meprin A subunit alpha) #1, how do the results read?
G2 robust z-score: -0.149

How did the screen score MEP1A (meprin A subunit alpha) #2?
G2 robust z-score: 0.0573

Which result is listed for MEP1A (meprin A subunit alpha) #3?
G2 robust z-score: -0.974

How did the screen score LRRC74BNL (LRRC74B N-terminal like) #1?
G2 robust z-score: -1.07

For LRRC74BNL (LRRC74B N-terminal like) #2, how do the results read?
G2 robust z-score: 3.56

For LRRC74BNL (LRRC74B N-terminal like) #3, what does the deposit list?
G2 robust z-score: 1.45
